Data taken from PubChem BioAssay AID743255 (National Center for Advancing Translational Sciences (NCATS), 2014).
In all, about 390,000 compounds went through this assay and about 910 (0.23%) were called active. This list was built around the results that the source calls inconclusive (neither active nor inactive); the mix of calls is not that of the screen. The call rests on the fitted dose curve; in most records, active means well fitted inhibition curve with a large enough effect; inconclusive means small, poorly fitted or top-dose-only effect; inactive means no such curve, though single readings can be large or run the other way. Potencies beside an inconclusive call are fits to weak or partial responses and may not hold up.

By UniProt entry, the sequences of proteins in these tests, tags left out. Where a name states a change or a piece, a line headed by the entry shows the natural chain unless it says otherwise.
UniProt O94782: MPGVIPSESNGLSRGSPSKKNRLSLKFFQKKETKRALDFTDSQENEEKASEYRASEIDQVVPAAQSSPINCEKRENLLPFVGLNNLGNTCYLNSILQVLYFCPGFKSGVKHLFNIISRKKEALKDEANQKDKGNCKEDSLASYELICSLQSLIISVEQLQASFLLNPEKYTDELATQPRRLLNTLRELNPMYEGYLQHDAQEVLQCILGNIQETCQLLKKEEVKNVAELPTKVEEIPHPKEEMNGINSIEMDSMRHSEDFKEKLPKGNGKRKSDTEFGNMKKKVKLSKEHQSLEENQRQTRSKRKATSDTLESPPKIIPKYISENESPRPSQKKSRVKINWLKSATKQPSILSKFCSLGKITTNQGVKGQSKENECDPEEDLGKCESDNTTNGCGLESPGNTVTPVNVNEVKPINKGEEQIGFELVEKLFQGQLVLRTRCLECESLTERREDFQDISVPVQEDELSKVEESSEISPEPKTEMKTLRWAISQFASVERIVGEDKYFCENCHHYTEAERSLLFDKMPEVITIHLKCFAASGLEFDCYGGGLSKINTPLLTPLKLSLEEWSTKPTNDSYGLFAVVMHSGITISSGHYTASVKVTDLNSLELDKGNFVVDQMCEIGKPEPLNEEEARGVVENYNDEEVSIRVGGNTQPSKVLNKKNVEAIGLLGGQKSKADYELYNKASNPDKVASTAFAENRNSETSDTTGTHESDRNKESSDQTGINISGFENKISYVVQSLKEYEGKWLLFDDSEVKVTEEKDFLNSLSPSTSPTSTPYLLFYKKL

Target: Ubiquitin carboxyl-terminal hydrolase 1 (Homo sapiens) (UniProt O94782)
Experiment: Inhibitors of USP1/UAF1: Primary Screen; further: nearly all actives have a fitted effect of over 60% in size
Settings: recombinant USP1/UAF1, Ub-Rhodamine cleavage fluorescence; activity change, negative = inhibition: at 57.1 µM (top of the series)
In short: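 USP1/UAF1 complex at 1 nM was preincubated with compound for 15 min at room temperature, then Ub-Rho substrate (150nM final) was added. Fluorescence (480/540 nm) was read kinetically, 6 reads every 60 seconds.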
On the % scale 0 is the no-effect control and ±100 the full control effect; potency means the concentration at half of the fitted maximal effect.

Q: `COc1ccccc1NS(=O)(=O)c1cc(NC(=O)c2cccc(S(=O)(=O)N(C)C)c2)ccc1N1CCOCC1` was tested. Which “activity change, negative = inhibition” value did it give?
A: inactive: -22.7%

Q: With `CCCC(=O)Nc1nnc2n1CCS2` as the compound, how does the Potency read?
A: inconclusive: 10 µM [inhibitor, partial curve, poor fit]

Q: `COc1ccc(-c2nc3ccccc3nc2-c2ccc(OC)cc2)cc1` was tested. Which “activity change, negative = inhibition” value did it give?
A: inactive: -23.4%

Q: `COc1ccc2[nH]c(=O)c(CNc3ccc(C)c(C)c3)cc2c1` was tested. Which Potency did it give?
A: inconclusive: 28.2 µM [inhibitor, partial curve]

Q: With `CCCCNc1c(-c2cccc(-c3cc(C(C)=O)cs3)c2)nc2ccc(C)cn12` as the compound, how does the Potency read?
A: inconclusive: 44.7 µM [inhibitor, partial curve, poor fit]

Q: How did the Potency turn out when `Cc1nc(N2CCOCC2)sc1C(=O)NN` was run?
A: inconclusive: 15.8 µM [inhibitor, partial curve]

Q: How did the “activity change, negative = inhibition” value turn out when `Cc1cccc(NC(=S)NCCc2ccccc2)c1C` was run?
A: inactive: -4.72%

Q: How did the “activity change, negative = inhibition” value turn out when `COc1cccc(OCc2cc(C(=O)N3CCC(C(O)C(C)C)CC3)no2)c1` (stereo not drawn) was run?
A: inactive: -8.63%

Q: How did the Potency turn out when `CCN(CC)c1ccc(N=Cc2ccc([N+](=O)[O-])o2)cc1` was run?
A: inconclusive: 28.2 µM [inhibitor, partial curve]

Q: How did the “activity change, negative = inhibition” value turn out when `COc1ccc(-c2cc(C)nc3c(-c4ccc(OC)c(OC)c4)c(C)nn23)cc1` was run?
A: inactive: -13.4%

Q: Which Potency does the source give for `O=C(COC(=O)c1cccc(S(=O)(=O)N2CCOCC2)c1)NCc1ccc2c(c1)OCO2` here?
A: inconclusive: 8.91 µM [inhibitor, partial curve, poor fit]

Q: `COC(=O)C[C@H]1C[C@H]2c3cc(NS(=O)(=O)c4cccc(OC)c4)ccc3O[C@H]2[C@@H](CO)O1` was tested. Which Potency did it give?
A: inconclusive: 79.4 µM [inhibitor, partial curve, poor fit]

Q: For `CCCCCCCCCCS(=O)(=O)N/N=C/c1ccc(O)cc1`, which Potency is on record?
A: inconclusive: 35.5 µM [inhibitor, partial curve, poor fit]

Q: With `Cc1cccc(Cn2c(=O)n(CCc3ccccc3)c(=O)c3c(C)c(C)sc32)c1` as the compound, how does the Potency read?
A: inconclusive: 5.62 µM [inhibitor, single point]

Q: `Cc1ccc(N(CC(=O)NC(C)(C)C)C(=O)CCC(=O)Nc2ccccn2)c(C)c1` was tested. Which “activity change, negative = inhibition” value did it give?
A: inactive: -21%

Q: With `CC1OC(Nc2cccc3ccccc23)C(O)C(O)C1O` (stereo not drawn) as the compound, how does the Potency read?
A: active: 22.4 µM

Q: `Cn1c(N)c(C(=O)COC(=O)/C=C/c2ccc(Cl)c(Cl)c2)c(=O)n(C)c1=O` was tested. Which Potency did it give?
A: inconclusive: 0.398 µM [inhibitor, full curve, poor fit]

Q: With `CCOC(=O)c1cccc(NC(=O)Cn2ncc3c4ccccc4n(Cc4ccccc4)c3c2=O)c1` as the compound, how does the Potency read?
A: inconclusive: 0.251 µM [inhibitor, full curve, poor fit]

Q: Which Potency does the source give for `Cc1ccc(CNC(=O)CCCCCn2c(=O)c3sccc3n(CC(=O)N(C)c3ccccc3)c2=O)cc1` here?
A: inconclusive: 5.62 µM [inhibitor, partial curve, poor fit]

Q: Which Potency does the source give for `Cc1ccc(-c2ccc(CCC(=O)O)n2-c2cccc(O)c2)cc1` here?
A: inconclusive: 112 µM [inhibitor, partial curve, poor fit]

Q: For `O=C1c2ccccc2C(=O)c2c1cccc2N1CCCC1`, which Potency is on record?
A: inconclusive: 31.6 µM [inhibitor, single point]

Q: `CCOC(=O)c1cnc(NCc2ccccc2OC)c2ccccc12` was tested. Which Potency did it give?
A: inconclusive: 0.631 µM [inhibitor, full curve]

Q: With `O=C(OCCN(C1=NS(=O)(=O)c2ccccc21)c1ccc(Cl)cc1)c1ccco1` as the compound, how does the Potency read?
A: inconclusive: 5.01 µM [inhibitor, full curve]

Q: With `CCOC(=O)C1CCC(CN(Cc2ccc(Cl)cc2)S(=O)(=O)c2ccc(F)c(C(=O)Nc3cccc(F)c3)c2)CC1` (stereo not drawn) as the compound, how does the “activity change, negative = inhibition” value read?
A: inactive: -18.3%

Q: How did the Potency turn out when `O=C1CC(C(=O)N2CCN(S(=O)(=O)c3cccc(F)c3)CC2)CN1Cc1ccccc1Cl` (stereo not drawn) was run?
A: inconclusive: 2.82 µM [inhibitor, full curve]

Q: How did the Potency turn out when `CCOCCCNC(=O)c1ccc(OC2CCN(C(C)=O)CC2)c(OC)c1` was run?
A: inconclusive: 31.6 µM [inhibitor, single point]

Q: With `CC(C)Nc1oc(-c2cccc3ccccc23)nc1C#N` as the compound, how does the Potency read?
A: inconclusive: 28.2 µM [inhibitor, single point]

Q: With `COc1ccc(-n2nc3c(N4CCCC(C(=O)NCc5cccc(F)c5)C4)nnc(C)c3c2C)cc1` (stereo not drawn) as the compound, how does the Potency read?
A: inconclusive: 22.4 µM [inhibitor, partial curve, poor fit]

Q: `CC(=O)c1ccc(NC(=S)Nc2ccn(Cc3ccc(Br)cc3)n2)cc1` was tested. Which “activity change, negative = inhibition” value did it give?
A: inactive: -11.5%

Q: How did the Potency turn out when `CCc1ccc(NC(=O)CN(c2ccc3c(c2)OCO3)S(=O)(=O)c2c(C)noc2C)cc1` was run?
A: inconclusive: 1.41 µM [inhibitor, full curve, poor fit]

Q: Which Potency does the source give for `CC(C)(C)C(=O)NCCc1nc2ccccc2n1CCCCOc1ccc(Cl)cc1` here?
A: inconclusive: 39.8 µM [inhibitor, partial curve, poor fit]

Q: For `CC(=O)Nc1ccc(NC(=O)c2ccc(NS(=O)(=O)c3cc(C(C)(C)C)ccc3C)cc2)cc1`, which Potency is on record?
A: inconclusive: 4.47 µM [inhibitor, partial curve]

Q: With `NNc1nc(-c2ccccc2)cc(-c2ccc(Br)cc2)n1` as the compound, how does the “activity change, negative = inhibition” value read?
A: inactive: -12.3%

Q: `O=C1C(NS(=O)(=O)c2ccccc2)=C(N2CCN(c3ccc(F)cc3)CC2)C(=O)c2ccccc21` was tested. Which “activity change, negative = inhibition” value did it give?
A: inactive: -17.3%

Q: Which “activity change, negative = inhibition” value does the source give for `COc1ccc(OCCNc2cc(N3CCCCC3)ccc2[N+](=O)[O-])cc1` here?
A: inactive: -13%

Q: For `Nc1c(C(=O)Nc2ccc(Br)cc2)sc2nc(N3CCOCC3)c3c(c12)CCCC3`, which Potency is on record?
A: inconclusive: 0.1 µM [inhibitor, full curve, poor fit]

Q: With `CCN(c1ccccc1)S(=O)(=O)c1cccc(C(=O)NCCOc2ccccc2OC)c1` as the compound, how does the “activity change, negative = inhibition” value read?
A: inactive: -19.7%

Q: Which Potency does the source give for `Cc1nn(-c2ccc(Cl)cn2)c2c1C(=O)CC(C)(C)C2Br` (stereo not drawn) here?
A: inconclusive: 0.398 µM [inhibitor, full curve, poor fit]

Q: With `CCN(CC)CCN1C(=O)C(=O)/C(=C(/O)c2ccc(S(=O)(=O)N3CCOCC3)cc2)C1c1ccc(C(C)(C)C)cc1` (stereo not drawn) as the compound, how does the Potency read?
A: inconclusive: 35.5 µM [inhibitor, single point]

Q: With `CCOC(=O)c1ccc(/[N+]([O-])=C/c2ccccc2)cc1` as the compound, how does the “activity change, negative = inhibition” value read?
A: inactive: -18%

Q: `COc1ccccc1S(=O)(=O)CC(O)COc1ccc(F)cc1Cl` (stereo not drawn) was tested. Which Potency did it give?
A: inconclusive: 50.1 µM [inhibitor, partial curve, poor fit]

Q: For `O=C(Cc1ccccc1)NC1(O)C(=O)c2ccccc2C1=O`, which Potency is on record?
A: inconclusive: 28.2 µM [inhibitor, single point]

Q: Which Potency does the source give for `Oc1ccc(N=Cc2ccc(O)c(O)c2)cc1` here?
A: active: 7.94 µM

Q: `COc1ccc(OC)c(/C=N\NC(=O)c2cc3c(ccc4ccccc43)o2)c1` was tested. Which Potency did it give?
A: inconclusive: 79.4 µM [inhibitor, partial curve, poor fit]

Q: How did the Potency turn out when `Brc1ccc(OCc2nc3ccccc3[nH]2)cc1` was run?
A: inconclusive: 44.7 µM [inhibitor, partial curve, poor fit]

Q: Which “activity change, negative = inhibition” value does the source give for `O=C(NC(=S)N1CCOCC1)C12CCC3CC(CC(C3)C1)C2` here?
A: inactive: -0.415%

Q: For `CCOC(=O)c1c(OCCO)nn(-c2ccccc2)c1N`, which Potency is on record?
A: inconclusive: 6.31 µM [inhibitor, full curve, poor fit]

Q: `Cc1oc2ncn(C)c(=O)c2c1C(=O)N1CCN(c2ccccc2)CC1` was tested. Which Potency did it give?
A: inconclusive: 12.6 µM [inhibitor, partial curve, poor fit]

Q: For `COc1cccc(CNC(=O)c2cc3c(s2)-c2c(C)cccc2OC3)c1`, which Potency is on record?
A: inconclusive: 3.98 µM [inhibitor, partial curve]

Q: `Cc1ccc(C)c(Nc2nc3c(S(=O)(=O)c4ccc(C(C)C)cc4)nnn3c3ccsc23)c1` was tested. Which Potency did it give?
A: inconclusive: 89.1 µM [inhibitor, partial curve, poor fit]

Q: For `C=C[C@@H]1c2c(F)cccc2N(S(=O)(=O)c2ccc(C)cc2)[C@H](c2ccc(OC(C)=O)cc2)C1(C#N)C#N`, which Potency is on record?
A: inconclusive: 7.08 µM [inhibitor, partial curve]

Q: For `COc1cc(Br)cc(/C=C/c2ccc3cccc(O)c3n2)c1OC`, which Potency is on record?
A: inconclusive: 3.55 µM [inhibitor, full curve, poor fit]

Q: How did the Potency turn out when `CCOC(=O)c1c(C)[nH]c(N=Nc2cc(C(=O)O)cc(C(=O)O)c2)c1C` was run?
A: inconclusive: 31.6 µM [inhibitor, partial curve, poor fit]

Q: With `COc1ccccc1CNC(=O)CN1C(=O)CSc2ccc(S(=O)(=O)N3CCCCC3)cc21` as the compound, how does the “activity change, negative = inhibition” value read?
A: inactive: -15.3%

Q: `CCCc1c(C)c2ccc(O)c(CN3CCN(c4ccc(F)cc4)CC3)c2oc1=O` was tested. Which Potency did it give?
A: inconclusive: 0.501 µM [inhibitor, full curve, poor fit]

Q: Which Potency does the source give for `CCOC(=O)N1C(=O)[C@@](CC)(c2ccccc2)N1C(=O)OCC` here?
A: inconclusive: 39.8 µM [inhibitor, partial curve, poor fit]

Q: For `CCOC(=O)C1=C(O)c2ccccc2C(=O)/C1=C\c1ccc(CC)cc1`, which Potency is on record?
A: inconclusive: 31.6 µM [inhibitor, single point]

Q: For `CN(C)c1ccc(/C=C2\SC(=O)N(CC(O)Cn3c4ccccc4c4ccccc43)C2=O)cc1` (stereo not drawn), which Potency is on record?
A: active: 12.6 µM

Q: `O=C1CCCCCN1C(=O)c1ccc(C(=O)N2CCCCCC2=O)cc1` was tested. Which “activity change, negative = inhibition” value did it give?
A: inactive: -16.2%

Q: Which Potency does the source give for `Cc1ccc2nc3c(c(C(=O)OCC(=O)N(C)C4CCS(=O)(=O)C4)c2c1)CCCC3` (stereo not drawn) here?
A: inconclusive: 44.7 µM [inhibitor, partial curve, poor fit]

Q: How did the Potency turn out when `O=c1c(-c2ccc(F)cc2)coc2c3c(ccc12)OCCO3` was run?
A: inconclusive: 35.5 µM [inhibitor, single point]

Q: `CCOc1ccc(CNC(=O)CSc2nnc(C)c3c(C)n(-c4ccccc4)nc23)cc1` was tested. Which Potency did it give?
A: inconclusive: 35.5 µM [inhibitor, partial curve, poor fit]

Q: Which Potency does the source give for `Cc1ccccc1CCNC(=O)c1ccc2c(c1)c(C)c(C)n2Cc1ccccc1` here?
A: inconclusive: 4.47 µM [inhibitor, partial curve]
